The text below walks through data of PubChem BioAssay AID624426 (Broad Institute, 2012).

This assay in a line: Cell-based reporter HTS for compounds lowering TRPM1 promoter activity in melanoma cells, concentration-response, primary stage (AID 624426). The note with it: SK-MEL-5 TRPM1-promoter luciferase, luminescence, 24 h; at 35 µM (top of the series).

Values joined by “and” are separate entries in the source; they are usually repeats but may differ in a detail not shown here. Equal entries are not always repeated. This is one part of the list. Entries with a potency or affinity are not part of this list. The source made no clear call on entries shown without one.

As for `O=C1C=C(Nc2ccccc2)C(=O)c2ccccc21`, the activity change, negative = inhibition is -110% and -79.8%.
